Measured values taken from patent publication US20210363254A1, “PHARMACEUTICAL COMBINATIONS” (Novartis AG, priority 2018, published 2021).

Settings: patients with at least stable disease

## COc1ncc(-c2nc3c(n2C(C)C)[C@H](c2ccc(Cl)cc2)N(c2cc(Cl)cn(C)c2=O)C3=O)c(OC)n1 [HDM201, (S)-5-(5-Chloro-1-methyl-2-oxo-1,2-dihydro-pyridin-3-yl)-6-(4-chloro-phenyl)-2-(2,4-dimethoxy-pyrimidin-5-yl)-1-isopropyl-5,6-dihydro-1H-pyrrolo[3,4-d]imidazol-4-one]
Regimen 1A ≥100 mg (n = 20)
  Relative dose intensity during the first 32 weeks of treatment, Median: 0.73
Regimen 1B ≥120 mg (n = 20)
  Relative dose intensity during the first 32 weeks of treatment, Median: 0.87
Regimen 2A ≥7.5 mg (n = 13)
  Relative dose intensity during the first 32 weeks of treatment, Median: 0.97
Regimen 2C ≥15 mg (n = 19)
  Relative dose intensity during the first 32 weeks of treatment, Median: 1

Like-named read-outs stand apart in the source and are kept apart here.
